# Measured values reported in PubChem BioAssay AID328 (DTP/NCI, 2004).
# The list is a part of this screen's results and no random one: it is rich in T/C values a quarter to a half above the control, in often repeated tests (any T/C) and in doses without a T/C. Other doses and runs of a compound stand elsewhere. T/C gives the treated animals as a percentage of the vehicle group. Some entries give survivors of the animals treated and no T/C: the source holds a T/C of zero for them, seemingly a mark for toxic or unscored doses. Some survivor counts are full or nearly so, which does not show that the dose was tolerated: the source hardly ever lists a survival T/C far under the control, and the zero likely stands for such cases as well. Counts of survivors are from the toxicity check (mostly the fifth day) where no day follows; animals may have died later. Schedule codes are those of the source, taken here to give the interval after Q, in days (D) or hours (H), and the number of doses after X. Some doses were run more than once; their values stand side by side, smallest first. For survival time, the PubChem record calls one and a half times the control and up active, and a quarter to a half above the control has no call in these data; cut-offs in other NCI protocols can differ. Some T/C values are followed by the survivors on the day toxicity was checked, most often the fifth; where none is given, no animal had died by that day.
# System: BDF1 mice, P388 leukemia ip, median survival T/C
# Assay: NCI In Vivo Anticancer Drug Screen. Data for tumor model P388 Leukemia (intraperitoneal) in B6D2F1 (BDF1) mice
# Settings: T/C endpoint: median survival time, higher T/C = longer survival
# Procedure, shortened: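 Reported as T/C, where T is the survival measurement in dosed animals and C the same measurement in vehicle controls.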
# [1] = dose: 12.5 mg/kg/injection, schedule: Q04DX003 (ip), vehicle: saline
# [2] = dose: 200.0 mg/kg/injection, schedule: Q04DX003 (ip), vehicle: saline with Tween-80
# [3] = dose: 100.0 mg/kg/injection, schedule: Q04DX003 (ip), vehicle: saline
# [4] = dose: 400.0 mg/kg/injection, schedule: Q04DX003 (ip), vehicle: Klucel (hydroxypropylcellulose) (HPC)
# [5] = dose: 200.0 mg/kg/injection, schedule: Q01DX009 (ip), vehicle: saline with Tween-80
# [6] = dose: 50.0 mg/kg/injection, schedule: Q01DX009 (ip), vehicle: saline with Tween-80
# [7] = dose: 100.0 mg/kg/injection, schedule: Q01DX009 (ip), vehicle: saline with Tween-80
# [8] = dose: 300.0 mg/kg/injection, schedule: Q04DX003 (ip), vehicle: saline with Tween-80
# [9] = dose: 400.0 mg/kg/injection, schedule: Q01DX009 (ip), vehicle: saline
smiles,measurement,setting,value
NCc1cn(C2OC(CO)C(O)C2O)c2ncnc(N)c12 (stereo unspecified),survivor count,"dose: 6.25 mg/kg/injection, schedule: Q01DX009 (ip), vehicle: saline",5 of 6 and 6 of 6
same,survivor count,[1],6 of 6
Clc1ccccc1-c1ncc2cnccn12,survivor count,"dose: 3.12 mg/kg/injection, schedule: Q01DX009 (ip), vehicle: saline with Tween-80",4 of 6 and 6 of 6
same,survivor count,[2],5 of 6
CNC(C)Cc1ccccc1OC (stereo unspecified),survivor count,[3],3 of 6
Cn1nnnc1[N-]Cc1ccccc1.[Au+].c1ccc([PH+](c2ccccc2)c2ccccc2)cc1,survivor count,"dose: 100.0 mg/kg/injection, schedule: Q01DX001 (ip), vehicle: saline with Tween-80",0 of 6
COc1cc(/C=C/C(=O)c2ccc3c(c2)OCO3)ccc1OCc1ccccc1,survivor count,"dose: 100.0 mg/kg/injection, schedule: Q01DX009 (ip), vehicle: water",5 of 6
same,survivor count,"dose: 400.0 mg/kg/injection, schedule: Q01DX009 (ip), vehicle: water",4 of 6
CC(=O)OCCC/C(=C/c1ccc(/C=C(\CCCOC(C)=O)[N+](=O)[O-])cc1)[N+](=O)[O-],survivor count,[4],3 of 6
COC(=O)CCC(=O)Nc1ccc(C(=O)CBr)cc1,survivor count,"dose: 100.0 mg/kg/injection, schedule: Q04DX003 (ip), vehicle: Klucel (hydroxypropylcellulose) (HPC)",4 of 6
O=S(=O)(NS(=O)(=O)c1ccc(Cl)cc1)c1ccc(Cl)cc1,survivor count,[4],0 of 6
CC(=Nc1ccccc1)C1=C(O)C(Cc2ccc(O)cc2)NC1=O (stereo unspecified),survivor count,[5],6 of 6
same,survivor count,"dose: 400.0 mg/kg/injection, schedule: Q01DX009 (ip), vehicle: saline with Tween-80",1 of 6
CC(=O)C1=C(O)C2(O)C(=O)c3c(c(C)c4ccc(C)c(O)c4c3O)CC2C(N)C1=O (stereo unspecified),survivor count,"dose: 25.0 mg/kg/injection, schedule: Q01DX009 (ip), vehicle: saline with Tween-80",0 of 6
same,survivor count,[6],0 of 6
same,survivor count,[7],0 of 6
COc1c(I)cc(/C=C(\C)[N+](=O)[O-])cc1I,survivor count,[5],3 of 6
C=CCN(C)/N=N/c1[nH]ncc1C(N)=O,T/C,[7],125 % of control
Clc1cccc(Cl)c1Br,survivor count,"dose: 200.0 mg/kg/injection, schedule: Q04DX003 (ip), vehicle: Klucel (hydroxypropylcellulose) (HPC)",6 of 6
COc1ccccc1Cc1c(OC)cc(OC)c(C(=O)CCc2ccccc2)c1O,T/C,"dose: 2.0 mg/kg/injection, schedule: Q01DX009 (ip), vehicle: saline",141 % of control
same,T/C,"dose: 4.0 mg/kg/injection, schedule: Q01DX009 (ip), vehicle: saline",144 % of control
C[CH2][Pb]([CH2]C)([CH2]C)[O][As](=O)(O)c1ccc(N)cc1,survivor count,"dose: 1.3 mg/kg/injection, schedule: Q01DX009 (ip), vehicle: saline",6 of 6
same,T/C,"dose: 3.0 mg/kg/injection, schedule: Q01DX009 (ip), vehicle: saline",140 % of control [5 of 6 alive]
same,survivor count,"dose: 6.0 mg/kg/injection, schedule: Q01DX009 (ip), vehicle: saline",4 of 6
CCC1C/C(=C\NC(N)=O)C(=O)O1 (stereo unspecified),survivor count,"dose: 100.0 mg/kg/injection, schedule: Q04DX003 (ip), vehicle: saline with Tween-80",6 of 6
same,survivor count,[2],5 of 6
O=[N+]([O-])c1ccc(N2CCN(c3ccccc3)CC2)c2c1no[n+]2[O-],T/C,[8],126 % of control
O=[N+]([O-])c1ccc(Sc2cccc[n+]2[O-])c2nonc12,survivor count,"dose: 15.0 mg/kg/injection, schedule: Q01DX009 (ip), vehicle: saline with Tween-80",3 of 7
same,survivor count,"dose: 30.0 mg/kg/injection, schedule: Q01DX009 (ip), vehicle: saline with Tween-80",1 of 7
same,survivor count,"dose: 60.0 mg/kg/injection, schedule: Q01DX009 (ip), vehicle: saline with Tween-80",0 of 7
C1CN2CCC1CC2,T/C,[6],133 and 135 % of control
same,survivor count,"dose: 75.0 mg/kg/injection, schedule: Q01DX009 (ip), vehicle: saline with Tween-80",6 of 6
same,survivor count,[7],5 of 6
O=C(O)C1CSC(c2ccccc2)N1 (stereo unspecified),T/C,[6],131 % of control
CCOC(C[Se][Se]CC(OCC)OCC)OCC,survivor count,"dose: 12.5 mg/kg/injection, schedule: Q01DX009 (ip), vehicle: saline",1 of 6
O=C(C[N+]12CN3CN(CN(C3)C1)C2)c1ccc(Cl)cc1,T/C,"dose: 100.0 mg/kg/injection, schedule: Q04DX003 (ip), vehicle: saline sonified",127 % of control
same,T/C,[3],130 % of control
same,T/C,"dose: 150.0 mg/kg/injection, schedule: Q04DX003 (ip), vehicle: saline sonified",145 % of control
same,T/C,"dose: 200.0 mg/kg/injection, schedule: Q04DX003 (ip), vehicle: saline",135 % of control
CCOP(=O)(OCC)OCCCN(CC)CC,survivor count,[9],0 of 6
CC1(C)COC(c2ccc(C(C)(C)C)cc2C(O)(c2cc(C(C)(C)C)ccc2C2=NC(C)(C)CO2)c2cc(C(C)(C)C)ccc2C2=NC(C)(C)CO2)=N1,survivor count,[2],6 of 6
O/N=C\c1ccccc1,survivor count,"dose: 150.0 mg/kg/injection, schedule: Q01DX009 (ip), vehicle: Klucel (hydroxypropylcellulose) (HPC)",3 of 6
same,survivor count,"dose: 225.0 mg/kg/injection, schedule: Q01DX009 (ip), vehicle: Klucel (hydroxypropylcellulose) (HPC)",6 of 6
same,survivor count,[8],4 of 6
N=C(N)SCc1cccc([N+](=O)[O-])c1,survivor count,"dose: 100.0 mg/kg/injection, schedule: Q01DX009 (ip), vehicle: Klucel (hydroxypropylcellulose) (HPC)",3 of 6
CC(=O)[O][Hg][c]1c(N)c(C)cc(C)c1F,survivor count,[1],3 of 6
same,survivor count,"dose: 25.0 mg/kg/injection, schedule: Q01DX009 (ip), vehicle: saline",1 of 6
same,survivor count,"dose: 25.0 mg/kg/injection, schedule: Q04DX003 (ip), vehicle: saline",3 of 6
same,survivor count,"dose: 50.0 mg/kg/injection, schedule: Q04DX003 (ip), vehicle: saline",2 of 6
same,survivor count,[3],0 of 6
C[n+]1c(-c2ccc(Cl)cc2Cl)c2cc([N+](=O)[O-])ccc2c2ccccc21,T/C,"dose: 12.5 mg/kg/injection, schedule: Q01DX009 (ip), vehicle: water",129 % of control
same,survivor count,"dose: 50.0 mg/kg/injection, schedule: Q01DX009 (ip), vehicle: water",5 of 6
O=[n+]1c2c(n([O-])c3ccccc31)-c1cccc3cccc-2c13,survivor count,"dose: 200.0 mg/kg/injection, schedule: Q01DX010 (ip), vehicle: saline",6 of 6
O=C1N(c2ccccc2)CCC12CCNCC2,survivor count,"dose: 200.0 mg/kg/injection, schedule: Q01DX009 (ip), vehicle: saline",5 of 6
COc1ccc(C(=O)CC(c2ccc(OC)c(OC)c2)c2c(O)c3ccccc3oc2=O)cc1OC (stereo unspecified),survivor count,[9],3 of 6
CC(C)CCCC(C)C1CCC2C3CC=C4CC(O)CCC4(C)C3CCC12C (stereo unspecified) (tested in a mixture with another compound),survivor count,"dose: 335.0 mg/kg/injection, schedule: Q04DX003 (ip), vehicle: Klucel (hydroxypropylcellulose) (HPC)",0 of 6
O=C(O)CCCc1ccc(N(CCCl)CCCl)cc1,T/C,"dose: 1.0 mg/kg/injection, schedule: Q01DX009 (ip), vehicle: Klucel (hydroxypropylcellulose) (HPC)",140 % of control
same,survivor count,"dose: 4.0 mg/kg/injection, schedule: Q01DX009 (ip), vehicle: Klucel (hydroxypropylcellulose) (HPC)",6 of 10
same,T/C,"dose: 6.25 mg/kg/injection, schedule: Q01DX010 (ip), vehicle: saline",127 % of control
same,survivor count,"dose: 24.0 mg/kg/injection, schedule: Q01DX009 (ip), vehicle: saline",5 of 8
same,survivor count,"dose: 25.0 mg/kg/injection, schedule: Q01DX010 (ip), vehicle: saline",0 of 6
CN(C)c1ccc(/C=C/c2ccnc3ccccc23)cc1,survivor count,"dose: 70.0 mg/kg/injection, schedule: Q01DX010 (ip), vehicle: saline",6 of 6
same,survivor count,"dose: 140.0 mg/kg/injection, schedule: Q01DX010 (ip), vehicle: saline",6 of 6
Cc1cc(N(C)C)c2ccc3c(ccc4c(N(C)C)cc(C)nc43)c2n1,survivor count,[5],0 of 6
CN(C)CCCOC(=O)CC(C)(C)C,survivor count,"dose: 200.0 mg/kg/injection, schedule: Q01DX005 (ip), vehicle: water",0 of 4
same,survivor count,"dose: 400.0 mg/kg/injection, schedule: Q01DX005 (ip), vehicle: water",2 of 4
